From patent publication US5204445A (The Scripps Research Institute, priority 1989, dated 1993)

Assay: general procedure: Boc solid-phase peptide synthesis; peptidylglycine a-amidating monooxygenase resins
Conditions: whole synthesis, homogeneity by HPLC, C18 μBondapak

Sequence: KYGRRGDS
- purity (crude or final not stated): >85%

Where a sequence shows no end group, the ends are not given.
